Reference: patent US10662193B2, “Carbazole and carboline compounds for use in the diagnosis, treatment, alleviation or prevention of disorders associated with amyloid or amyloid-like proteins” (AC IMMUNE SA, priority 2014, dated 2020)

By UniProt entry, the sequences of proteins in these tests, tags left out. Residues count along the entry.
UniProt P10636, 623-708 limits assumed: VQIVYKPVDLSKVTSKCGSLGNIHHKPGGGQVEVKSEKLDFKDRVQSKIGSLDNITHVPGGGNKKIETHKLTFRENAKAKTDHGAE

Columns and labels:
[1] = test system: tau tangles on AD brain section; assay: Assay 1: displacement of RefA on human AD brain sections (fluorescence)
Procedure: (§1) Direct Binding of Compounds of this Invention to Human Alzheimer's Disease Brain Sections and/or Displacement of RefA and Compound B
(§2) Frozen sections with a thickness of […] from the amygdala of donors diagnosed with Braak stage V-VI Alzheimer's Disease (Braak, H.; Braak, E. Acta Neuropathol., 1991, 82, 239-259), were purchased from a commercial provider (Tissue Solutions) and kept at −80° C. until use.
Displacement of RefA and Compound B
Brain sections were mainly treated as described above. Test compounds were, however, incubated on the section at 250 μM in 50% ethanol for 20 min at room temperature, and then directly incubated with the fluorescent reference compounds RefA and Compound B, each at 1 μM in 50% ethanol for 20 min at room temperature. RefA and Compound B stainings were visualized using the 470 nm and 365 nm excitation filters, respectively. Images were acquired, and tangles and plaques quantified using the NIS-Element software. Only those compounds not directly staining tangles or plaques at the same wavelengths as RefA and Compound B were tested in the displacement assay.
Structure of RefA (Tago et al., J. Label. Compd. Radiopharm. 2013, DOI: 10.1002/jlcr.3133)

AD brain-enriched PHF [2] = biological target: T1, AD brain-enriched PHF (Homo sapiens, UniProt P10636); assay: Assay 2 (filter trap): [3H]RefA radio-binding competition assay and Ki on PHF; settings: read-out: [^3H]RefA competition [Ki]; [^3H]RefA 10 nM, PHF diluted 1/80, compound 0.12 nM to 50 μM
Procedure: Displacement of [^3H]RefA by Compounds of this Invention
(§3) 50 g of frontal lobe tissue from post-mortem brain of an Alzheimer's disease (AD) patient were obtained from the London Tissue Bank. The patient was a […] and died […]. The brain sample was collected 5 hours post-mortem and characterized for Braak disease stage (Braak, H.; Braak, E. Acta Neuropathol., 1991, 82, 239-259) as stage VI. […]
AD brain-enriched PHF diluted 1/80 were incubated in the presence of [^3H]RefA at 10 nM and the example compounds of this invention at 2.5 μM (250× excess), for 45 minutes at 37° C. Samples were then analyzed by on GF/B filter plates as described above (in the section “[^3H]RefA radio-binding assay and determination of the dissociation constant (Kd)). Non-specific signal was determined again with an excess of un-labeled RefA and specific binding calculated by subtracting the non-specific signal from the total signal. Competition was calculated as percent, where 0% was defined as the specific binding in the presence of vehicle (2.8% DMSO in PBS) and 100% as the values obtained in the presence of excess cold RefA. […]
Samples were then analyzed on GF/B filter plates as described above and Ki values calculated using Prism V5 (GraphPad).

[3] = test system: tau tangles/Aβ plaques on AD brain sections; assay: Assay 1: direct staining of human Alzheimer's disease brain sections (fluorescence); settings: 100 μM compound, cell does not say tangles or plaques
Procedure: Assay 1 (Fluorescence Based Assay):
as §1, §2
Direct Staining of Human Alzheimer's Disease Brain Sections
Brain sections were encircled with pap pen liquid blocker to reduce the volume of solution for the different incubations. Sections were fixed for 15 min at 4° C. with 4% paraformaldehyde and washed three times 5 minutes with PBS at room temperature. […] To reduce the auto-fluorescence of the tissue, the sections were incubated in a solution of 0.1% Sudan Black (Sigma 199664) in 70% ethanol for 15 min at room temperature in the dark, washed four times for 5 minutes with PBS, and mounted using ProLong Gold Antifade reagent (Invitrogen P36930). Sections were then analyzed on the Nikon Eclipse Ti microscope to detect staining and imaged using Nikon DS-Fi2 camera and NIS-Element AR4.13.1 software.

[4] = biological target: Tau enriched paired helical filaments (PHF) from human Alzheimer's disease (AD) brains (Homo sapiens, UniProt P10636); assay: Assay 3: backscattering interferometry, dissociation constants (Kd); settings: read-out: [Kd] on PHF batch 6; PHF batch 6 (pooled frontal cortex, 25 AD patients)
Description: Assay 3 (Backscattering Interferometry):
Determination of Dissociation Constants (Kd) of Compounds of this Invention
Enrichment of Paired Helical Filaments (PHF's) from Human Alzheimer's Disease Brains
For backscattering interferometry, Tau enriched paired helical filaments (PHF) from human Alzheimer's disease (AD) brains were used as a target. Due to the limited availability of tissues, to determine dissociation constants (Kd) of compounds of this invention to the target, two different batches of enriched PHF were used. These batches are identified as batch 6 and 7 and were prepared as follows.
PHF batch number 6 was prepared starting from 25 g frontal cortical tissue from post-mortem brains of 25 Alzheimer's disease (AD) patients which were obtained from the London Tissue Bank. The mean age at death for the AD patients was 76 years (48% females). Brain samples were characterized for Braak disease stage (Braak and Braak, 1991), with most donors displaying a stage VI. The postmortem interval between death and brain dissection was between 6 and 65 h. Human brain homogenates were prepared by SB Drug Discovery (Glasgow, Scotland, UK) from the post-mortem cortical tissue of the 25 patients). […]

AD brain-enriched PHF [5] = biological target: T1, AD brain-enriched PHF; assay: Assay 2 (filter trap): radio-binding assay, determination of the dissociation constant (Kd) on PHF; settings: tritiated ligand 1.25-50 nM, PHF diluted 1/80, 45 min 37° C.
Procedure: Enrichment of Paired Helical Filaments (PHF's) from Human Alzheimer's Disease Brain
as §3
AD brain-enriched PHF were diluted 1/80 (with an estimated tau concentration of 62.5 ng/ml and incubated with [^3H]RefA at different concentrations ranging from 50 nM to 1.25 nM. The reaction was performed in a final volume of 70 μL PBS with 2.8% DMSO, for 45 min at 37° C. 30 μL of samples in duplicates were then filtered under vacuum on a GF/B filter plate (PerkinElmer 6005177) to trap the PHF with the bound radio-ligand, and washed three times with PBS. The GF/B filters were then vacuum-dried, 20 μL scintillation liquid (PerkinElmer 1200-436) was added in each well, and the filters were analyzed on a Microbeta Trilux device. […] Specific binding was calculated by subtracting the non-specific signal to the total signal. […] The Kd values were calculated by nonlinear regression, one site specific binding using Prism V5 (GraphPad). […]

`CN1CCc2c(c3ccc(Nc4ccc(F)c(F)c4)nc3n2C)C1=O` was tested. Which “Competition on AD brain section tau tangles (1 μM RefA vs. 250 μM compound)” value [1] did it give?
The value was 26%.

What about the Ki (AD brain-enriched PHF [2]) of the same molecule?
Its Ki is 719 nM.

What about the “Direct staining of tau tangles/Aβ plaques on AD brain sections at 100 μM” value [3] of the same molecule?
Its value is “−”.

And the Kd [4]?
Its Kd is 32 nM.

And the Kd (AD brain-enriched PHF [5])?
The Kd was 43 nM.

Structures were worked out from names or drawings and are uncertain.
